# Assay results reported in the supplement of paper PMC11732987, “Enantioselective OTUD7B fragment discovery through chemoproteomics screening and high-throughput optimisation” (Communications Chemistry, 2025).
# By UniProt entry, the sequences of proteins in these tests, tags left out. Where a name states a change or a piece, a line headed by the entry shows the natural chain unless it says otherwise. Residues count along the entry.
# UniProt Q9H977: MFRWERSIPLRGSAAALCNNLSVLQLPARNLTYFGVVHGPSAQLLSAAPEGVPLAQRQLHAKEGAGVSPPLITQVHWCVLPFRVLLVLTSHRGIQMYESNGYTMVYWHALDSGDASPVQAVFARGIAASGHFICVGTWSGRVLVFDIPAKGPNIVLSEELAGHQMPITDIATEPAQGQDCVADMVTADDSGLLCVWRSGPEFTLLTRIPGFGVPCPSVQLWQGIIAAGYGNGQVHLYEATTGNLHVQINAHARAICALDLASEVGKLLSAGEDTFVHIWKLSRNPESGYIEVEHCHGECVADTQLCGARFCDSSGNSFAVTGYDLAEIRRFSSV
# UniProt Q9UN37: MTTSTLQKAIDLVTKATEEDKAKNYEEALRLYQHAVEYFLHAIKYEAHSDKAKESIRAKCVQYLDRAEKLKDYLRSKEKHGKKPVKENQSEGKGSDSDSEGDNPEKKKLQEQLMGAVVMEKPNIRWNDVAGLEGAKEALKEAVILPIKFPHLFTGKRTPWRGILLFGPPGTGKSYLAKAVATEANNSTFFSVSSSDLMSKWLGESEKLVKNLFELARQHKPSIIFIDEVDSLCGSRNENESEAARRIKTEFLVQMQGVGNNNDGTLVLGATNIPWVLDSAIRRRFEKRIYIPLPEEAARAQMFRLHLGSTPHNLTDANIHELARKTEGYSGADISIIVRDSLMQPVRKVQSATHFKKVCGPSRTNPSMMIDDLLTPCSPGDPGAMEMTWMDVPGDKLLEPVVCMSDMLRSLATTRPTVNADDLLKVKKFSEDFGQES
# UniProt Q9HAV4: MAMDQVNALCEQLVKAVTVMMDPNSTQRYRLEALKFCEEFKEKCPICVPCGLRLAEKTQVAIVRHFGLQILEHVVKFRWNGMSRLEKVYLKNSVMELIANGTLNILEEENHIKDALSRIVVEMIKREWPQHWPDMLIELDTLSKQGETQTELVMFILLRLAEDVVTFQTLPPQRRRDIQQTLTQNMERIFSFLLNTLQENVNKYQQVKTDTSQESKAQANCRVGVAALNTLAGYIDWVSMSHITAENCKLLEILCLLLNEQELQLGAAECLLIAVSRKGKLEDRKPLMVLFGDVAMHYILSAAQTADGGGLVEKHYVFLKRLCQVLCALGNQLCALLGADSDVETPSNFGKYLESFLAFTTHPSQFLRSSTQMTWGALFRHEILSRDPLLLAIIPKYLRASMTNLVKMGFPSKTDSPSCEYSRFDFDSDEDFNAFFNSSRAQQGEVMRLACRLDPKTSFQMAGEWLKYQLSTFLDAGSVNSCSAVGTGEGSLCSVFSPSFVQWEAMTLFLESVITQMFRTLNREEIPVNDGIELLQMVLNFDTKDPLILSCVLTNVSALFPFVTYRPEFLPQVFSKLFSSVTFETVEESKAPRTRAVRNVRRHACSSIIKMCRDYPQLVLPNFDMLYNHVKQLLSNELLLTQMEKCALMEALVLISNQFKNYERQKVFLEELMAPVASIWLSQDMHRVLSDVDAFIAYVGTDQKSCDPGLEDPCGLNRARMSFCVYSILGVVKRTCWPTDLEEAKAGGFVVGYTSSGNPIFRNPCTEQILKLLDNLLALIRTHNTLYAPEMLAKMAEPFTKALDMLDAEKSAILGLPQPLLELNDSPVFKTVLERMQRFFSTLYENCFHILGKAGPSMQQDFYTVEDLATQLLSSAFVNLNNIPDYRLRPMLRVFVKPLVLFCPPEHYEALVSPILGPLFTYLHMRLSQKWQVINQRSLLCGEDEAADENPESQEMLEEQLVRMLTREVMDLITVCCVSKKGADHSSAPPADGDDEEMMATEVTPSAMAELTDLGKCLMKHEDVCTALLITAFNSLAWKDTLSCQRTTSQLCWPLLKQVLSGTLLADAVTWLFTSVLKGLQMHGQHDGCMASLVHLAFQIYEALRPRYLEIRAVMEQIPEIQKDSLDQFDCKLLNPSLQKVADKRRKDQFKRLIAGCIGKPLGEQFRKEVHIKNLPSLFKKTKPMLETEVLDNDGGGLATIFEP
# UniProt Q9Y4P8, 375-406: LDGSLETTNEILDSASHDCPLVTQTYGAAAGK
# UniProt Q9Y4P8, 417-439: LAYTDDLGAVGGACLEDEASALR
# UniProt Q9UID3: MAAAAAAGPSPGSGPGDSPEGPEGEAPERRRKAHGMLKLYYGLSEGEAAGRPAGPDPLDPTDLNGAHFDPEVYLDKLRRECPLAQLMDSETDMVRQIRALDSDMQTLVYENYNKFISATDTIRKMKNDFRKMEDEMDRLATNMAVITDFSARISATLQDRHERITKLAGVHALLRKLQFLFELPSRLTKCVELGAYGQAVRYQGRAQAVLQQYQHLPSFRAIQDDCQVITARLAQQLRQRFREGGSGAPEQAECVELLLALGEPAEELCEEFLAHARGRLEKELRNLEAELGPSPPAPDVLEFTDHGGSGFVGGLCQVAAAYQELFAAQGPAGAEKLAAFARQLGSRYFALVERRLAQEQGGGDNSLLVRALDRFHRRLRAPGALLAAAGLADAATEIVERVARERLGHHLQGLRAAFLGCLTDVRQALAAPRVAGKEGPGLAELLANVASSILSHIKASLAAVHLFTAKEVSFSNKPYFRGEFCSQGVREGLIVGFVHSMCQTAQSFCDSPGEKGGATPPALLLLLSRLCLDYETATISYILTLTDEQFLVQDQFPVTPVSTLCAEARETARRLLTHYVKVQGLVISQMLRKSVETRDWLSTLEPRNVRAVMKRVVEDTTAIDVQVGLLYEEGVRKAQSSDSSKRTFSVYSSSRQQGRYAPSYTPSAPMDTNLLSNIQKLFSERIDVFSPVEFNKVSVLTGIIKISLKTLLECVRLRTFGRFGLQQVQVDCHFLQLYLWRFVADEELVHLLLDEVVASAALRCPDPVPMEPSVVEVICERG
# UniProt O14980, whole entry, looked up: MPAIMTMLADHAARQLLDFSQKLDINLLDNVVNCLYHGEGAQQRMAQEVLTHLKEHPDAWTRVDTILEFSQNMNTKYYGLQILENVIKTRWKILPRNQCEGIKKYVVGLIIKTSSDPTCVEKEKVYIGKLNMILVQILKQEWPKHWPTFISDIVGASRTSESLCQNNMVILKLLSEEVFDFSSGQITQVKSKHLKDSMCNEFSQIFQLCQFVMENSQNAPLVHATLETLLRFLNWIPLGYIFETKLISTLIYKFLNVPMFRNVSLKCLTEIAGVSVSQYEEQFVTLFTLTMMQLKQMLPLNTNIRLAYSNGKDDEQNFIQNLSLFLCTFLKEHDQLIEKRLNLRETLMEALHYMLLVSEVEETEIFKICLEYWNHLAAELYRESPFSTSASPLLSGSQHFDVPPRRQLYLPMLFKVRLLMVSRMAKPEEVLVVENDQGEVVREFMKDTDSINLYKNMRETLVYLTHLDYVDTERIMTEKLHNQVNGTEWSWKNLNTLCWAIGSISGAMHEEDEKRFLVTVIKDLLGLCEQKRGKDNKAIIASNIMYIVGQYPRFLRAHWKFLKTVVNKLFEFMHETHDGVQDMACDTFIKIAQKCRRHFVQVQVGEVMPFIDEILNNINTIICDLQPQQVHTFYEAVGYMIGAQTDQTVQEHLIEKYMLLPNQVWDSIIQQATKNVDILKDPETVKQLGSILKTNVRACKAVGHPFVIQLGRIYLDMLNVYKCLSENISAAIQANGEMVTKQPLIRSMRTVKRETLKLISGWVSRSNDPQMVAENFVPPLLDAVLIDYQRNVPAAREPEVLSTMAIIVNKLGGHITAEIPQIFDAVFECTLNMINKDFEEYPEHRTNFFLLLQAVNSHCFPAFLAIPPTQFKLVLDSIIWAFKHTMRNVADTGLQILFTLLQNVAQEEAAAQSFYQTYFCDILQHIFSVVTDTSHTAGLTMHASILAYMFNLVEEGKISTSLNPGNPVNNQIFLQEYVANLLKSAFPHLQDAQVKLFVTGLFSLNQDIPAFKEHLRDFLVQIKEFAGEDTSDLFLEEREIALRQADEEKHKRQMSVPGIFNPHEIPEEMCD
# UniProt Q8IZH2: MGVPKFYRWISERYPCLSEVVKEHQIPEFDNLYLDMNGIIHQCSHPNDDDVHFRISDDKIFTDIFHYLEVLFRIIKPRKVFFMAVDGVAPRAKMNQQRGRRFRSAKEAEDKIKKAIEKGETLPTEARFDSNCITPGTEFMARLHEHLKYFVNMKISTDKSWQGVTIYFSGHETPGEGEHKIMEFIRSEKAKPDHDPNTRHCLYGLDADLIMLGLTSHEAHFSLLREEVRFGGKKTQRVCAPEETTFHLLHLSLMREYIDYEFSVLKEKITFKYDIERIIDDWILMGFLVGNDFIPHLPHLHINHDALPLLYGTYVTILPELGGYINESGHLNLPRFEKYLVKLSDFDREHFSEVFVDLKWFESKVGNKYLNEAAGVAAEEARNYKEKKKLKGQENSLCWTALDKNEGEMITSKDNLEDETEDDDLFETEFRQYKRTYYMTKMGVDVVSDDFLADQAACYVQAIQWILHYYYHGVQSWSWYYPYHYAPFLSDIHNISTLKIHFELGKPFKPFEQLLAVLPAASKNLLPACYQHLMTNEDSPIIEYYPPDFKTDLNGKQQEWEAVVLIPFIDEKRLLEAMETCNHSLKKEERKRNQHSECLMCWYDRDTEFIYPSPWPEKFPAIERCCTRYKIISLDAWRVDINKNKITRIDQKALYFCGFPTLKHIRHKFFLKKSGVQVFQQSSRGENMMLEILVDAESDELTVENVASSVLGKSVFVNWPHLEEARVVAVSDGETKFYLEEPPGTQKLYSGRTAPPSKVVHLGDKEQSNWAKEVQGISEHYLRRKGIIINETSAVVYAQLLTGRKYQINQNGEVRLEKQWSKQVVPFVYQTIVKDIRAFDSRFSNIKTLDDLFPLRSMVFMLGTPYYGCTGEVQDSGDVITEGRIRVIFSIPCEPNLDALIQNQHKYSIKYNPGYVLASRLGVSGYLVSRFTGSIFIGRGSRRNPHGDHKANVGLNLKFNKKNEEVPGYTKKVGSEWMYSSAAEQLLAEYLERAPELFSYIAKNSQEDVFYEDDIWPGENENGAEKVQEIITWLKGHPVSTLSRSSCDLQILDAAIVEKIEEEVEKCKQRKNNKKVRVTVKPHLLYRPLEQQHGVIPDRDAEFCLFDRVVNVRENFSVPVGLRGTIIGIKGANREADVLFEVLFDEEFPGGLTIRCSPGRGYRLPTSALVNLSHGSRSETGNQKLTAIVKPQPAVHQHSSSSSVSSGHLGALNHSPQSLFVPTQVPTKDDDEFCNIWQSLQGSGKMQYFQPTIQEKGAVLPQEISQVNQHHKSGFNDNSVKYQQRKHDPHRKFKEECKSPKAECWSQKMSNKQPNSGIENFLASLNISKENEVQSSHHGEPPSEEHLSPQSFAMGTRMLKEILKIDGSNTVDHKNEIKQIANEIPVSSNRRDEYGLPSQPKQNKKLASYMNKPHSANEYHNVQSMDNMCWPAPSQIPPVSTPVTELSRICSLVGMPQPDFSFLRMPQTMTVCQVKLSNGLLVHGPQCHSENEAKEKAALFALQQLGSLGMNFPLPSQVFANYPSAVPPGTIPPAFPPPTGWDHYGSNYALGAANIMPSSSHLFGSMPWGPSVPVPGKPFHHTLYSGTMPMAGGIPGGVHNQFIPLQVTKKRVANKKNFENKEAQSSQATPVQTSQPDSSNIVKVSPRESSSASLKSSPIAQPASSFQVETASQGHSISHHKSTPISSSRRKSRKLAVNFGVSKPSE
# UniProt Q9UBH6: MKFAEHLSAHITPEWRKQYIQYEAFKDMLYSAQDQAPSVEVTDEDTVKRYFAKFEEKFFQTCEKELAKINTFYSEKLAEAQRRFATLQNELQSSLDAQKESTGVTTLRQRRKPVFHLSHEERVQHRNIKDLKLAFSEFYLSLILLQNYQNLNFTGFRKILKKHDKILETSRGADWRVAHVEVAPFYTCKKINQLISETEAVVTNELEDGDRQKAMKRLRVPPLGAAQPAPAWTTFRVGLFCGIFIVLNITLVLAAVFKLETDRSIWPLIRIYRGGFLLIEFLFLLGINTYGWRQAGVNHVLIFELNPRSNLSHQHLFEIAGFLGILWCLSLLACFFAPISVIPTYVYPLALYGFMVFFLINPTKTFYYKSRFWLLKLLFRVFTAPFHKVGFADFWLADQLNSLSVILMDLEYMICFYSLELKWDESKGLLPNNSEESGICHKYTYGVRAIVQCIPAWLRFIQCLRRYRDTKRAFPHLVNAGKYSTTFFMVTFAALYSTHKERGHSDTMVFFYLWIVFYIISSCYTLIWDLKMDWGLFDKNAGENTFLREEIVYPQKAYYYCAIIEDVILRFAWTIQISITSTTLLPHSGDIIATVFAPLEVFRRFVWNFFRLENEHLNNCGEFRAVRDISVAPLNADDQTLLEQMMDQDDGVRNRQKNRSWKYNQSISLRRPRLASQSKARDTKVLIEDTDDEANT
# UniProt P10074, 263-284: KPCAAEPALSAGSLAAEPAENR
# The list shows a part of the results. The data scatter; read single values as rough.
# Legend:
# [1] = compound: ClCC(=O)N[C@@H]1CCCc2ccccc12; assay: log2 mean competition ratio of IA-DTB cysteine labelling (DMSO/compound) (log2 ratio); higher = stronger cysteine engagement by compound; conditions: treatment time: 4 h, cell line lysate: HEK293T
# Procedure: (§1)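 IA-DTB competitive cysteine chemoproteomics in HEK293T RIPA lysate. Lysates were treated with compound 29 or 30 at 50 or 200 µM for 4 h, then IA-DTB (500 µM, 1 h), trypsin-digested, NeutrAvidin-enriched and analysed by diaPASEF. Competition ratio = intensity DMSO / intensity compound (n=4 treated, n=64 DMSO); binding: mean log2 CR ≥ 1 and p ≤ 0.05 plus QC filters. Target is the cysteine site.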
# [2] = compound: ClCC(=O)N[C@H]1CCCc2ccccc12; assay: as above; conditions: treatment time: 4 h, cell line lysate: HEK293T
# Procedure: as §1
Target,log2 mean competition ratio ([1]; 50 µM),log2 mean competition ratio ([1]; 200 µM),log2 mean competition ratio ([2]; 50 µM),log2 mean competition ratio ([2]; 200 µM)
WDR54 C256 (UniProt Q9H977),-0.402,-0.375,-0.282,0.158
VPS4A C60 (UniProt Q9UN37),0.273,0.0433,0.419,0.0967
XPC C514 (UniProt Q01831),-0.408,0.258,-0.322,0.00244
XPO7 C767,0.421,0.193,0.0405,0.0977
VPS35L C925 (UniProt Q7Z3J2),-0.0278,0.292,-0.132,0.026
XPO5 C765 (UniProt Q9HAV4),-0.178,-0.0436,-0.027,0.174
WIPI2 C393 (UniProt Q9Y4P8),-0.259,-0.209,0.203,-0.522
WWP2 C186 (UniProt O00308),0.0109,0.164,0.266,0.281
XPO5 C37 (UniProt Q9HAV4),0.0545,0.169,0.208,0.142
VPS51 C190 (UniProt Q9UID3),0.0212,-0.225,-0.0973,-0.144
XPO1 C723 (UniProt O14980),-0.0418,-0.299,0.26,-0.427
WRN C1070 (UniProt Q14191),-0.427,0.474,-0.0738,-0.199
WNK2 C2062 (UniProt Q9Y3S1),0.142,-0.046,0.277,-0.0807
VPS51 C485 (UniProt Q9UID3),0.0632,0.0535,0.0747,-0.0178
WAPL C160 (UniProt Q7Z5K2),-0.099,0.163,0.00869,0.253
ZC3H12A C223 (UniProt Q5D1E8),-0.329,-0.2,,0.112
WIPI2 C430 (UniProt Q9Y4P8),0.0722,-0.566,0.236,-0.052
WDR7 C234 (UniProt Q9Y4E6),-0.0344,-0.358,0.487,-0.215
WDFY3 C3027 (UniProt Q8IZQ1),-0.353,-0.0757,-0.0405,-0.367
XRN1 C1304 (UniProt Q8IZH2),0.00295,0.314,0.19,0.331
XPO7 C123,0.156,-0.108,-0.168,-0.0677
XPO5 C1044 (UniProt Q9HAV4),0.0582,0.237,0.261,0.193
XYLT1 C285 (UniProt Q86Y38),-0.486,-0.107,-0.34,-0.0745
WWP1 C335,-0.267,0.332,-0.341,0.162
XPO7 C43,-0.115,0.0368,-0.079,0.121

# A few values from the results shown:
# log2 mean competition ratio ([2]; 200 µM), WIPI2 C430 (UniProt Q9Y4P8) reads -0.052
# log2 mean competition ratio ([2]; 50 µM), WNK2 C2062 (UniProt Q9Y3S1) reads 0.277
# log2 mean competition ratio ([2]; 50 µM), WAPL C160 (UniProt Q7Z5K2) reads 0.00869

# Later entries.

Target,log2 mean competition ratio ([1]; 50 µM),log2 mean competition ratio ([1]; 200 µM),log2 mean competition ratio ([2]; 50 µM),log2 mean competition ratio ([2]; 200 µM)
ZC3H14 C693 (UniProt Q6PJT7),0.0679,0.075,0.457,-0.173
XPR1 C62 (UniProt Q9UBH6),-0.102,-0.0387,-0.165,-0.225
WDR81 C207 (UniProt Q562E7),-0.138,0.0692,-0.121,0.23
WDR81 C76 (UniProt Q562E7),0.0206,0.211,-0.186,0.28
YY1AP1 C734 (UniProt Q9H869),0.0225,-0.116,0.282,-0.4
ZBED1 C76 (UniProt O96006),-0.116,0.155,-0.284,-0.19
YTHDF2 C482 (UniProt Q9Y5A9),0.188,-0.114,0.204,-0.0534
VWA8 C416 (UniProt A3KMH1),-0.101,0.0225,0.404,0.0943
WASF2 C27 (UniProt Q9Y6W5),0.244,-0.0814,0.178,-0.0903
VPS37A C325 (UniProt Q8NEZ2),-0.23,0.164,0.322,-0.0326
ZADH2 C218 (UniProt Q8N4Q0),0.0632,0.152,-0.18,0.12
ZBTB48 C265 (UniProt P10074),-0.0624,0.176,-0.12,0.177
VPS51 C714 (UniProt Q9UID3),-0.0975,-0.112,0.18,-0.115
VPS53 C311 (UniProt Q5VIR6),0.162,0.0735,0.664,0.583
YLPM1 C775 (UniProt P49750),0.345,-0.469,0.382,-0.287
YDJC C170 (UniProt A8MPS7),0.218,-0.00631,0.333,0.172
WASHC4 C344 (UniProt Q2M389),-0.164,0.0734,-0.324,-0.0517
XPO1 C99 (UniProt O14980),-0.048,-0.0387,0.0503,-0.0934
WDR46 C515,-0.316,-0.051,-0.723,0.0353
WDR75 C490 (UniProt Q8IWA0),0.0582,0.122,-0.157,-0.054
YEATS2 C102 (UniProt Q9ULM3),0.674,-0.146,-0.711,0.225
WARS1 C274,-0.2,-0.147,-0.34,0.145
ZC3H11A C431 (UniProt O75152),-0.264,-0.0941,-0.186,0.0167
VPS35L C315 (UniProt Q7Z3J2),-0.0675,-0.0864,-0.137,-0.0214
